Results taken from publication PMC7947288.
Results are given in words; binding and its absence hold for the method and conditions named. Binding seen in cells or lysates may run through a third protein. Some binding calls cover weakened binding; strength is not graded here. For some of these results: Where a sequence is shown, tags or fusion partners need not be part of it.

Protein sequences, listed by entry. Tags and fused reporters are not part of them.
UniProt P11142: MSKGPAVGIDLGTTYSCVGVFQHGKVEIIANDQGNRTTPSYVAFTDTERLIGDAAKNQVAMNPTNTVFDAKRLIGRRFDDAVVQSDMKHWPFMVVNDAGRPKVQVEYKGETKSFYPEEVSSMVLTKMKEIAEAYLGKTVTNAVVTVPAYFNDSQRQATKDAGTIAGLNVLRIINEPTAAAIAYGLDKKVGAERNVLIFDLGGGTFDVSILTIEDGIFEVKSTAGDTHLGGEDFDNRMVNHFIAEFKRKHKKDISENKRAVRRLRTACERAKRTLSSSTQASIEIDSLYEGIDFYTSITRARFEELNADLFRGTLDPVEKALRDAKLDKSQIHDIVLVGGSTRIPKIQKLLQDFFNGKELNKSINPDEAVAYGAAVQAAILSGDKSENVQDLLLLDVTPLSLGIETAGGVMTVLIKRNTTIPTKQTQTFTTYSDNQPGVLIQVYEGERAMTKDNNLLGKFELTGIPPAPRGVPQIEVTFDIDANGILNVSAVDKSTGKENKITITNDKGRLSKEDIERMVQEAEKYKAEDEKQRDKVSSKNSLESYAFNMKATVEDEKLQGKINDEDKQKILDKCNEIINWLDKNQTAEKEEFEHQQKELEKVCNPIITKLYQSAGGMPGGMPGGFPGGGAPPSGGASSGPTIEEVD

Assays:
Test in all cases: co-IP; HEK293T co-transfected with Flag-NSD2 isoform and Myc-RPL10 or Myc-HSPA8, lysed after 48 h (20 mM Tris pH 7.5, 150 mM NaCl, 1% Triton X-100); whole-cell lysates precipitated with anti-Flag M2 agarose in the presence or absence of RNase A, ethidium bromide; immunoblot
[1] = biological target: T1, Flag-tagged NSD2 Isoform 3 (human) (UniProt O96028)
T1 sequence: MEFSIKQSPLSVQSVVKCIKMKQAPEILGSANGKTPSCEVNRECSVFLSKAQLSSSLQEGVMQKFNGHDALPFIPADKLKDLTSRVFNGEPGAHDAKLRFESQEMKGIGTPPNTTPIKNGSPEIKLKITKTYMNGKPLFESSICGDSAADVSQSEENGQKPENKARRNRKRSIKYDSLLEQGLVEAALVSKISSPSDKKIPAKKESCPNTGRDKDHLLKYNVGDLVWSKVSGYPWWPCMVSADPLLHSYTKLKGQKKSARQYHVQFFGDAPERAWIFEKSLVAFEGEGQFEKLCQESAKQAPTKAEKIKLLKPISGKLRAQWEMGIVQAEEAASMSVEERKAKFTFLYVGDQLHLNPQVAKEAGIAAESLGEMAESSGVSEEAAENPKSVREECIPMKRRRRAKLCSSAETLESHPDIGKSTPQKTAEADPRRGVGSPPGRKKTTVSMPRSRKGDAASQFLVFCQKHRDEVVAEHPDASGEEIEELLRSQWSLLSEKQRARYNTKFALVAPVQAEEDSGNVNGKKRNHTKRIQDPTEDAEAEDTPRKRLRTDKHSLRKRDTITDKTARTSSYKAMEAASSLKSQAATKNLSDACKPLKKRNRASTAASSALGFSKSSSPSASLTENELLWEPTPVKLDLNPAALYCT

[2] = biological target: T2, Flag-tagged NSD2 Isoform 5 (human) (UniProt O96028)
T2 sequence: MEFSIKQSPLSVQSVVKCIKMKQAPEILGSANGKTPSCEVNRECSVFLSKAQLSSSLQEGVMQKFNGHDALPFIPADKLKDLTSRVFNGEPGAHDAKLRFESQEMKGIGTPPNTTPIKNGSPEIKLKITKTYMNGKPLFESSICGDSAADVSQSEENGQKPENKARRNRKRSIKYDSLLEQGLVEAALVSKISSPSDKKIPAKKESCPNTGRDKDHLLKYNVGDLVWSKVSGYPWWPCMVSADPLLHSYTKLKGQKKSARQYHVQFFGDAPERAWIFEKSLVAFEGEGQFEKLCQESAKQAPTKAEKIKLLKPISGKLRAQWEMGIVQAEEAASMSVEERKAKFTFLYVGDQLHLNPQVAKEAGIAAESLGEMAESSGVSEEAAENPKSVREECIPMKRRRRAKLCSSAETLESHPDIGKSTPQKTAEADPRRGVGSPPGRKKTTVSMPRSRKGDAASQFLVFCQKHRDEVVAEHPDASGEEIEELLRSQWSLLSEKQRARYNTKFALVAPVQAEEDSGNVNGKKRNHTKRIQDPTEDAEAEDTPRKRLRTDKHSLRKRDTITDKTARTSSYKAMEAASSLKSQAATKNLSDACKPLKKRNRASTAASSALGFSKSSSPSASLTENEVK

[3] = biological target: T3, Flag-tagged NSD2 Isoform 7 (human) (UniProt O96028)
T3 sequence: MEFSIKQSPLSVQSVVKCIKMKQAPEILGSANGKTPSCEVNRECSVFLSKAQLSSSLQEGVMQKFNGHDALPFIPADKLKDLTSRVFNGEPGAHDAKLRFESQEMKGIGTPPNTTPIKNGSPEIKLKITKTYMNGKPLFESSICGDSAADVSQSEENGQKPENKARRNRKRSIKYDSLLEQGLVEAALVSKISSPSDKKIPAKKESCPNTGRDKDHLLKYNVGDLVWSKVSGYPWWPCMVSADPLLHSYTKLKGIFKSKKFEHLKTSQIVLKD

[4] = biological target: Flag-tagged NSD2 Isoform 1 (human) (UniProt O96028)

Measured: binding

Myc-tagged HSPA8 (from UniProt P11142 1-646)
binds: all assays above
